Data as given in publication doi:10.1101/723940.

Protein sequences, listed by entry. Tags and fused reporters are not part of them. Lines headed by an entry give the natural chain unless they say otherwise; changes in a name come on top.
UniProt Q9Y696: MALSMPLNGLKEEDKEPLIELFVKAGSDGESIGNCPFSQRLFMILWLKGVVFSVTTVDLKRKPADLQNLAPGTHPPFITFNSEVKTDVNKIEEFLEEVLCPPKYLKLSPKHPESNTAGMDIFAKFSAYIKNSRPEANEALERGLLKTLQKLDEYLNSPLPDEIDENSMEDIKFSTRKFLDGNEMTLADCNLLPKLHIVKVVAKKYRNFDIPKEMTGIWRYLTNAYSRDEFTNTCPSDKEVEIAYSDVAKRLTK
UniProt Q9P289: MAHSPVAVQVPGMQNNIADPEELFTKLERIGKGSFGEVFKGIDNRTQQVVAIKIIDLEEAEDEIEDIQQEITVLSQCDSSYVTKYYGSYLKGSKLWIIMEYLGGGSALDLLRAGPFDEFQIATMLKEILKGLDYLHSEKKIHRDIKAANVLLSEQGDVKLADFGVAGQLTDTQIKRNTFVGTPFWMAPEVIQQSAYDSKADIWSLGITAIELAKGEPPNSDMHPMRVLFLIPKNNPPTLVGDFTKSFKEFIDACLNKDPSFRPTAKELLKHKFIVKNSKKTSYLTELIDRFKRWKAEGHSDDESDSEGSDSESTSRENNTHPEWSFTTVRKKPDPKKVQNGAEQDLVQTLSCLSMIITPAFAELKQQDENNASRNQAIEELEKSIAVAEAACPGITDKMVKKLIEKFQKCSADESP

Biological target: GST-CLIC4 (chloride intracellular channel 4) (UniProt Q9Y696)
Assay: pull-down

- binding: binds
Substance: MST4 kinase (from UniProt Q9P289 1-416) (enzyme)

These are yes or no findings as the source states them, for the method shown. Binding seen in cells or lysates may run through a third protein. A result given as binding can be weak or reduced; the word gives no strength.
